The experiment is described as follows: qHTS Assay for Lipid Storage Modulators in Drosophila S3 Cells.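 On cell number change: cells counted by Cell Tracker Red CMTPX staining in the red channel.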 The settings on record: BODIPY lipid droplet fluorescence, 18-24 h; for cell number change: measured here: cell count max response, cells fed with added oleic acid. The procedure, abridged:
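Drosophila S3 cells got compounds at several concentrations plus oleic acid (400 uM solution). Laser-scanning cytometry with 488 nm excitation read lipid droplets at 500-530 nm and cells at 575-640 nm. Percent activity was relative to 20 uM Triacsin C.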

Setting [1] is: measured here: lipid fluorescence (Fed channel) AC50, cells fed with added oleic acid.
The mark [2] stands for this setting: measured here: cell number channel AC50, cells fed with added oleic acid.

Each structure is given as a SMILES string. The list shows a part of the results. The main result of the screen is listed elsewhere. These columns were measured beside it and carry no call. Compounds called inactive in the main read-out are mostly missing here. Potencies come from curve fits of mixed quality, noted in brackets.

`N=C1C(c2nc3ccccc3c(=O)[nH]2)=C(O)CN1CCc1ccccc1`: the cell number change was determined as 0.184%. Also, under setting [1], the AC50 was 0.58 µM [rising, full curve, poor fit]. Take `CCc1ccccc1N1CCN(S(=O)(=O)c2ccc(F)c(C)c2)CC1`: the cell number change amounted to 25.9%. In addition, under setting [1], the AC50 is 6.51 µM [rising, partial curve]. As to `O=C(c1ccccc1)C1CN(Cc2ccccc2)CCC1(O)c1ccccc1` (stereo unspecified), the cell number change stood at 1.33%. Also, under setting [1], the AC50 is 0.00517 µM [falling, full curve, poor fit]. Regarding `CCOc1ccc2nc(NC(=O)CSc3nc4cccnc4n3C)sc2c1`, the cell number change is -70.9%. Also, the AC50 under setting [2] was 16.4 µM [falling, single point]. For the same molecule, the AC50 under setting [1] is 18.4 µM [falling, partial curve]. As for `CCc1nnc(NS(=O)(=O)c2ccc(N)cc2)s1`, the cell number change is 13%. The AC50 under setting [1] was 18.4 µM [rising, partial curve, poor fit]. In the case of `CC1C(c2ccccc2)N(C)CCC12NC(=O)NC2=O` (stereo unspecified), the cell number change is -5.7%. The AC50 under setting [1] was 6.51 µM [falling, single point].

On to `O=C(O)c1cccc(S(=O)(=O)N2CC=C(c3ccccc3)CC2)c1`, for which the cell number change stood at 11.1%.

For the molecule `Cc1nc(/C=C/c2ccccc2)cc(/C=C/c2ccccc2)n1`, the cell number change is 43.2%. For the same molecule, the AC50 under setting [2] is 0.411 µM [rising, full curve]. In addition, the AC50 under setting [1] was 6.51 µM [rising, partial curve]. Take `N=c1sccn1CC(=O)Nc1cccc2ccccc12`: the cell number change is 9.52%. For the same molecule, the AC50 under setting [1] was 0.00461 µM [falling, full curve, poor fit]. `O=C(NCCc1csc(-c2ccc(Cl)cc2)n1)c1ccco1`: the cell number change is -11%. Besides, the AC50 under setting [1] is 29.1 µM [falling, single point]. With `c1cncc(-c2nnc3n2N=C(c2cccs2)CS3)c1`, the cell number change was -29.5%. Same read-out and setting: the same measure for `COC(=O)c1ccccc1NC(=O)CN1CCC(n2nnc3cc(C)ccc32)CC1`: -7.37%.

Consider `O=C(COC(=O)c1c[nH]c(=O)[nH]c1=O)Nc1cccc([N+](=O)[O-])c1`, for which the cell number change was 18.3%. Moreover, under setting [1], the AC50 was 3.26 µM [rising, single point].

Turning to `Cc1ccccc1CNC(=O)COc1ccccc1`, the cell number change was -5.87%. Same read-out and setting: to `Cc1ccc(-n2nc3c(c2NC(=O)c2ccco2)CS(=O)C3)cc1` (stereo unspecified) belongs 8.4%.

As for `CC(=O)N1c2ccc(S(=O)(=O)NCC3CCC(C(=O)Nc4cc(C)ccn4)CC3)cc2CC1C` (stereo unspecified), the cell number change worked out at 16.4%. Moreover, the AC50 under setting [1] is 18.4 µM [falling, partial curve].

For `Cc1cccc(C(=O)NCCN2CCCC2)c1`, the cell number change was 1.28%. Under setting [1], the AC50 is 1.03 µM [rising, full curve]. Turning to `CCSc1ncc(/C=N/Nc2ccc([N+](=O)[O-])cc2)n1C`, the cell number change is -27.7%. Moreover, the AC50 under setting [1] is 0.82 µM [rising, single point]. Consider `Clc1cc(NC2CCCCC2)ncn1`, for which the cell number change is -26.3%. Further, the AC50 under setting [1] was 0.00461 µM [falling, full curve, poor fit]. Consider `CC1CCCCN1CCCNC(=O)C1CCN(c2nnc(-n3cccc3)s2)CC1` (stereo unspecified), for which the cell number change was -24.4%. The AC50 under setting [1] was 29.1 µM [falling, single point]. Take `COc1ccc(NC(C)=O)cc1S(=O)(=O)N1CCN(C/C=C/c2ccccc2)CC1`: under setting [1], the AC50 is 6.51 µM [rising, single point].

On to `COc1cc(/C=C/C(=O)OCC(=O)Nc2ccc(Cl)cn2)ccc1O`, for which the cell number change is -24.9%. The AC50 under setting [2] was 0.731 µM [falling, full curve, poor fit]. As for `Cc1cccc(N(CC(N)=O)C2SC(=O)N(c3ccccc3)C2=O)c1` (stereo unspecified), the cell number change was -39.5%. Moreover, the AC50 under setting [2] was 5.8 µM [falling, full curve]. Further, the concentration at half-maximal activity (AC50) under setting [1] is 5.17 µM [falling, full curve]. In the case of `CCn1c(/C(C#N)=C(\O)CCc2ccccc2)nc2ccccc21`, the cell number change was 12.8%. For the same molecule, under setting [1], the AC50 was 4.11 µM [rising, single point]. As to `CC/C(=N\NC(=O)CSc1ncccn1)c1ccc2c(c1)OCCO2`, the cell number change was determined as 8.21%. Moreover, the AC50 under setting [1] is 29.1 µM [rising, single point]. As to `O=C(O)c1n[nH]c2c1CCCC2`, the cell number change worked out at 2.77%. Also, the AC50 under setting [1] is 0.184 µM [falling, partial curve]. Consider `CCC(C)[C@H](NC(=O)C1CCN(C(=O)[C@H](Cc2ccccc2)NS(=O)(=O)c2ccc(C)cc2)CC1)C(=O)O` (stereo partly specified), for which the cell number change worked out at 0.508%. Regarding `Cc1cc(N/N=C/c2ccc(O)cc2)nc(NS(=O)(=O)c2ccccc2)n1`, the AC50 under setting [2] was 2.91 µM [rising, single point]. Take `Cc1ccccc1Cc1c(C)nc2nc(SCC(=O)NCCCN3CCCCC3)nn2c1C`: the cell number change came to 15%. Further, under setting [1], the AC50 is 0.366 µM [rising, partial curve]. As for `O=C(NCc1ccc2c(c1)OCO2)c1ccc(CS(=O)(=O)c2ccc(Br)cc2)o1`, the cell number change was found to be 5.89%.

Regarding `O=C(O)C1CCN(C(=O)c2csc(-c3ccc4c(c3)CCO4)n2)CC1`, the cell number change was -50.6%. The AC50 under setting [2] is 29.1 µM [falling, single point]. Also, the AC50 under setting [1] is 29.1 µM [falling, single point].

Take `COc1ccc(Cl)cc1S(=O)(=O)NC1CC(C)(C)NC(C)(C)C1`: the cell number change is -42.2%. Consider `CCN(CC(=O)NC(C)C)Cc1nc2sc3c(c2c(=O)[nH]1)CCC3`, for which the cell number change came to 59.4%. Besides, the AC50 under setting [2] is 20.6 µM [rising, single point]. Also, the AC50 under setting [1] is 0.259 µM [falling, partial curve, poor fit]. With `COc1cc2nc(CN(C)Cc3ccc(OC)c(OC)c3OC)[nH]c(=O)c2cc1OC`, the cell number change is 78%. Under setting [2], the AC50 is 4.11 µM [rising, partial curve]. Take `O=C(O)CSc1nccc2ccccc12`: the cell number change is 11.3%.

For `CCn1c(COc2ccccc2C)nnc1SCC(=O)CC(=O)Nc1ccccc1`, the cell number change is -1.3%. For the same molecule, under setting [1], the AC50 is 0.13 µM [rising, full curve, poor fit]. With `CC1CCCCC1NC(=O)CSc1nnc(CNC(=O)c2ccccc2)n1C` (stereo unspecified), the cell number change was -1.06%. Under setting [1], the AC50 was 4.11 µM [falling, single point].

With `COc1ccc(Br)cc1CN(C)CC(=O)NCCc1ccccc1`, the cell number change is -36.4%.

As to `O=C(NC1CCCCCC1)C1c2ccccc2C(=O)N1Cc1cccnc1` (stereo unspecified), the cell number change was determined as 33.1%. Besides, the AC50 under setting [2] was 4.61 µM [rising, single point]. The AC50 under setting [1] was 9.2 µM [falling, single point]. Regarding `COc1ccc2c(c1)C(C)=CC(C)(C)N2S(=O)(=O)c1ccc(NC(C)=O)cc1`, the cell number change is 8.77%. For the same molecule, under setting [1], the AC50 is 29.1 µM [falling, single point]. With `Cc1cccnc1NC(=O)c1ccc(S(=O)(=O)N2CCCCC2)cc1`, the cell number change is -14.8%. Also, the AC50 under setting [1] is 0.731 µM [rising, full curve, poor fit].

Usually AC50 stands for the concentration giving half of the maximal activity seen.

The record behind these values is PubChem BioAssay AID2685 (National Center for Advancing Translational Sciences (NCATS), 2010).
